Laboratory results taken from paper PMC10681981.
No constants are given. Whether binding was seen depends on the method and setting. In cells and extracts the contact can be indirect. Some entries that bind do so weakly or less than the wild type.

Protein sequences, listed by entry. Tags and fused reporters are not part of them.
UniProt P28033: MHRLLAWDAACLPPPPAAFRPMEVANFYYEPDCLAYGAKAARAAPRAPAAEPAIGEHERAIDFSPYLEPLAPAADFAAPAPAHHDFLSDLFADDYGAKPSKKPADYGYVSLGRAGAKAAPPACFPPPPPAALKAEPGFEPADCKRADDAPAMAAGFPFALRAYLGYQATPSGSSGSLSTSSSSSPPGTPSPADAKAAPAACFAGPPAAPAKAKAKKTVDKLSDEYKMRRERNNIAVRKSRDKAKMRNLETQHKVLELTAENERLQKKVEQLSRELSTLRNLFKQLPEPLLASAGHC

Columns and labels:
[1] = biological target: T1, USP1, overexpressed in HEK293 cells (pcDNA3.1 Usp1) (UniProt Q8BJQ2); test: co-IP; both proteins overexpressed in HEK293 cells; lysates immunoprecipitated using IgG and USP1 antibodies, western blot
T1 sequence: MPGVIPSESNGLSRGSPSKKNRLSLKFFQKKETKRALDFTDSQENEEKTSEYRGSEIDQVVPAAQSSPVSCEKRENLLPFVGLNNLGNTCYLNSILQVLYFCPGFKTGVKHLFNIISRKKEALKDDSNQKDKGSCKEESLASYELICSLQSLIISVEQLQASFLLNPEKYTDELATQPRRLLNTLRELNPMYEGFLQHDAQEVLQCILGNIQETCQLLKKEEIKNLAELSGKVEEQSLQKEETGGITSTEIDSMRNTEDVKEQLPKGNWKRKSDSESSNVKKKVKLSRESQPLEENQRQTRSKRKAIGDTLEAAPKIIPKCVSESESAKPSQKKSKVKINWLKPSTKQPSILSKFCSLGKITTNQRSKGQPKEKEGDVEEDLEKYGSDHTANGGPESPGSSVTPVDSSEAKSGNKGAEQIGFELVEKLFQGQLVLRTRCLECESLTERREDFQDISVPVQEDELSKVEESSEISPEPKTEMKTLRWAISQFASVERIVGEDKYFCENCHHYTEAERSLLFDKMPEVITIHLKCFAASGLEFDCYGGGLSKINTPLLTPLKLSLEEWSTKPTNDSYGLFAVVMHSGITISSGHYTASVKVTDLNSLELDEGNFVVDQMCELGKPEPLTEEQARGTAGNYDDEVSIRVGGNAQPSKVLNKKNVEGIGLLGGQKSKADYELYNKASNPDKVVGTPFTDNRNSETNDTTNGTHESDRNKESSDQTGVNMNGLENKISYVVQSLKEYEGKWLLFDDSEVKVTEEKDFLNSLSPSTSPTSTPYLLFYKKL

[2] = biological target: T2, ubiquitin-specific protease 1 (USP1), endogenous in AML12 cells (mouse (endogenous in AML12)) (UniProt Q8BJQ2); test: co-IP; endogenous proteins; AML12 cell lysates immunoprecipitated using IgG and USP1 antibodies, overnight at 4 °C, western blot
T2 sequence: T1 sequence

[3] = biological target: T2, ubiquitin-specific protease 1 (USP1), endogenous in AML12 cells (mouse (endogenous in AML12)); test: condition: only AML12 cells treated with ML323 for 48 h (20 μM by the methods); co-IP; endogenous proteins; AML12 cells treated with ML323 for 48 h, lysates immunoprecipitated using IgG and USP1 antibodies

## C/EBPβ, overexpressed in HEK293 cells (pcDNA3.1 Cebpb) (from UniProt P28033 1-296)
[1]
  binding: binds

## CCAAT/enhancer-binding protein beta (C/EBPβ), endogenous in AML12 cells (from UniProt P28033 1-296)
[2]
  binding: binds
[3]
  binding: no binding
